Source: US5969098A, “Yeast-toxin-related protein for antimicrobial vaccine and sterilizing preservative use” (CyberChemics, Inc., priority 1997, dated 1999)
Not every detail of the peptide structures is certain; ends, links or a residue may be inferred. Where no end group is shown, it is not given here.

Tested on: representative bacteria, yeast and fungi
Assay: antimicrobial growth inhibition (MIC / 50% inhibitory concentration) in Mueller-Hinton broth, optical density at 620 nm
Format: cell-based
Conditions: peptide alone

LLLLKKLLKLMNLLKKLGHY [SEQ. 3]
antimicrobial action: lacks antimicrobial action

KKIKEKYDKMKK [SEQ. 4, KKIKEKYDKMKK]
antimicrobial action: lacks antimicrobial action
